Measurements reported in PMC8093215.
No constants are given. Whether binding was seen depends on the method and setting.

Assays:
[1] = molecular target: hDNMT1 BAH1 domain from the His6-MBP vector (human) (UniProt P26358)
[2] = molecular target: hDNMT1 BAH1 domain W796A from the His6-MBP vector (human) (UniProt P26358); assay: ITC; hDNMT1 BAH1 (WT, W796A or Mut^YW) with the autoinhibitory linker peptide hDNMT1(714-727); 5 °C; single-site fit; both purified
[3] = molecular target: hDNMT1 BAH1 domain Y775A/W796A from the His6-MBP vector (human) (UniProt P26358); assay: as above
[4] = molecular target: human DNMT1 BAH1 domain, Y775A/W796A (Mut^YW), His6-MBP construct used for the autoinhibitory linker binding (human) (UniProt P26358); assay: ITC; hDNMT1 BAH1 domain (WT, W796A or Mut^YW) with the autoinhibitory linker peptide hDNMT1(714-727); 5 °C; single-site binding mode; both purified
[5] = molecular target: human DNMT1 BAH1 domain, W796A, His6-MBP construct used for the autoinhibitory linker binding (human) (UniProt P26358); assay: as above

binding [1] | binding [2] | binding [3] | binding [4] | binding [5] | Binder
no binding | no binding | no binding | – | – | SPKKMHQGKKKKQNY (peptide, UniProt P26358 714-727) [autoinhibitory linker peptide hDNMT1(714–727)]
– | – | – | no binding | no binding | SPKKMHQGKKKKQNY (peptide, UniProt P26358 714-727) [hDNMT1(714-727) autoinhibitory linker peptide]
